The results in this text go back to publication PMC9371924, “Exploration of DNA processing features unravels novel properties of ICE conjugation in Gram-positive bacteria”.

Residue numbers refer to the chain shown, from its start. Construct, isoform or probe ends are uncertain for at least one entry. For some assays here: No signal at the amounts used counts as a negative. Tags and fusion partners may be left off the protein sequences shown. For some assays here: Weaker means in comparison with the reference protein, sequence or condition of that experiment.

Data set [1] concerns the target T1, RelSt3 (MOBT relaxase) (Streptococcus thermophilus (ICESt3)) (UniProt Q935T7).
T1 sequence (looked up, limits assumed): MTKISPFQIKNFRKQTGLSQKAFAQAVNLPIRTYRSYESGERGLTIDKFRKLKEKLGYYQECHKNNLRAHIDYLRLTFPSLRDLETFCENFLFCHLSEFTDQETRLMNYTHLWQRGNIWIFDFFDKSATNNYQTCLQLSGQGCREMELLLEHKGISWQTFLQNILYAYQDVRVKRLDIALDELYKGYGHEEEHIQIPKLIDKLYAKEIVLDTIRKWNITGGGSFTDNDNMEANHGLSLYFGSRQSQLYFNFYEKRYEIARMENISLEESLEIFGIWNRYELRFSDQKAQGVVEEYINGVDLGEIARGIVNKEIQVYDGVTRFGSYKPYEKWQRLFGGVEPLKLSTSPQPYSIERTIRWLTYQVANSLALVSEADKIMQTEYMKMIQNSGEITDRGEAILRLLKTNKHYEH
Kind of data set: EMSA. The conditions noted are these: agarose, 0.5 and 1.5 uM; PAGE EMSA: 20 mM Tris-HCl (pH not stated), 500 mM NaCl, 100 ug/ml salmon sperm DNA, 0.11 uM DNA, 15 min 37 C, gel run at 4 C; recombinant protein; probe letters rebuilt from the primers and the genome.

In data set [2] the target is T2, RelSt3 (MOBT relaxase) (Streptococcus thermophilus (ICESt3)) (UniProt Q935T7).
T2 sequence (looked up, limits assumed): T1 sequence (looked up, limits assumed) with N28S, E61G, A128V, E190D, N229D, N297T, S324A, R333E
Kind of data set: EMSA. The conditions noted are these: up to 6.4 uM, PAGE EMSA: 20 mM Tris-HCl (pH not stated), 500 mM NaCl, 100 ug/ml salmon sperm DNA, 0.11 uM DNA, 15 min 37 C, gel run at 4 C, recombinant protein, label: 5' 6-FAM.

Data set [3] has as its target T2, RelSt3 (MOBT relaxase) (Streptococcus thermophilus (ICESt3)). Briefly: covalent adduct gel (Coomassie). The settings on record: Mn2+, covalent nicking intermediate; recombinant protein.

As for “AAAAAGAATTCAATCCTCGCTCAATTTGAAGAGGGAGGACGCAGGTCTTATCCAAAAGCAGTTGAAGCGACGATTGTTCATCATGGGCTAGGACAAGGGCAAGGACAAGCCTGACCACAGGTCAGGCGCAGACCGTAGCCCGAAGTTCCTAGGCCATGATGAGACTTCAACCCCCGATTTCTAATAGGGGGGTTACATTTGGCCAAAGTGCCACGTCCACCCCTCCTCATTCCTTGTGGGAGTTGGGATTTCAAGATTTAGAAAGTGTGTCACTTTGGTCCAAAAAGTGTGTCACTTAGTCAAAAGGAGGTGGGCCCTTTTT (double strand) [oriT5 PCR product]”, the binding result in data set [1] is “binds”.

As to “AAAAAGAATTCAGGCATTGTATTCGAACGTTCAGACTCTGCCATTCTAGTGAATCCTTTTCAAGAAAAACTTCTTCTTGAAATCCTCGCTCAATTTGAAGAGGGAGGACGCAGGTCTTATCCAAAAGCAGTTGAAGCGACGATTGTTCATCATGGGCTAGGACAAGGGCAAGGACAAGCCTGACCACAGGTCAGGCGCAGACCGTAGCCCGAAGTTCCTAGGCCATGATGAGACTTCAACCCCCGATTTCTAATAGGGGGGTTACATTTGGCCAAAGTGCCACGTCCACCCCTCCTCATTCCGGGCCCTTTTT (double strand) [oriT4 PCR product]”, the binding result in data set [1] is “no binding”.

As to “AAAAAGAATTCTAATAGGGGGGTTACATTTGGCCAAAGTGCCACGTCCACCCCTCCTCATTCCTTGTGGGAGTTGGGATTTCAAGATTTAGAAAGTGTGTCACTTTGGTCCAAAAAGTGTGTCACTTAGTCAAAAGGAGGTGTTCCCATGAATGACTAAAATAAGTCCCTTTCAGATCAAAAACTTTAGAAAACAAACAGGCCTTAGCCAAAAAGCCTTTGCACAAGCAGTTAACTTACCGATAAGAACTTACCGCTCCTATGAATCTGGGGAAAGAGGTCTGACCATTGACAAGTTTCGAAAACTCAAAGGGGCCCTTTTT (double strand) [oriT3 PCR product]”, the binding result in data set [1] is on record as “binds”.

For “AAAAAGGGCCCGAAATCGGGGGTTGAAGTCTCATCATGGCCTAGGAACTTCGGGCTACGGTCTGCGCCTGACCTGTGGTCAGGCTTGTCCTTGCCCTTGTCCTAGCCCATGATGAACAATCGTCGCTTCAACTGCTTTTGGATAAGACCTGCGTCCTCCCTCTTCAAATTGAGCGAGGATTTCAAGAAGAAGTTTTTCTTGAAAAGGATTCACTAGAATGGCAGAGTCTGAACGTTCGAATACAATGCCTTGTTCTTGCAAGAGATAAATGATCTTTCGAAGCGTCGCCATTTTGAGGTCTTGTTCCTCCGGAATTCTTTTT (double strand) [oriT2 PCR product]”, the binding result in data set [1] is “no binding”.

Consider “CTTTGGTCCAAAAAGTGTGTCACTTAGTCAAAAGGAG (double strand) [ori43 (IR2b)]”, for which the binding result in data set [2] (no or very poor binding) is “binds more weakly”.

Take “GAGACTTCAACCCCCGATTTCTAATAGGGGGGTTACATTTTCAAGATTTAGAAAGTGTGTCACTTTGGTCCAAAAAGTGTGTCACTTAGTCAAAAGGAG / CTCCTTTTGACTAAGTGACACACTTTTTGGACCAAAGTGACACACTTTCTAAATCTTGA [ori50 unlabeled]”: in data set [3], the binding result was “binds”.

For the sequence “TCAAGATTTAGAAAGTGTGTCACTTTGGTCCAAAAAGTGTGTCACTTAGTCAAAAGGAG [ss-ori41]”, in data set [2] (single-stranded DNA), the binding result is reported as “no binding”.

With “TTTCAAGATTTAGAAAGTGTGTCACTTTGGTCCAAA (double strand) [ori34 (IR2a)]”, the binding result in data set [2] (no or very poor binding) is on record as “binds more weakly”.
